Some of these results come from one statement about several compounds together. At least one compound was matched to its structure with a doubt left.
Assays:
[1] = test system: gray mold fungi (Botrytis cinerea); assay: Test Example B: tomato gray mold, spray test on potted tomato plants; settings: tomato (Oogata Fukuju), 250 ppm spray 2.5 ml/pot before inoculation, 2 to 3 days after inoculation
[2] = test system: cucumber anthracnose fungi (Colletotrichum orbiculare); assay: Test Example H: cucumber anthracnose, spray test on potted cucumber plants; settings: cucumber (Sagami Hanjiro), 250 ppm spray 2.5 ml/pot before inoculation, 6 to 10 days after inoculation
[3] = test system: cabbage alternaria sooty spot fungi (Alternaia brassicicola); assay: Test Example C: cabbage alternaria sooty spot, spray test on potted cabbage plants; settings: cabbage (Shikidori), 250 ppm spray 2.5 ml/pot before inoculation, 2 to 3 days after inoculation

Measured: control value

C#CCN(C)c1cc(Cl)c(=O)n(CC)c1-c1c(F)cc(OC)cc1F [Compound 260]
> 50%: all assays above

CC(C)N(C)c1cc(Cl)c(=O)n(CC(F)F)c1-c1c(F)cc(F)cc1F [Compound 153]
> 50%: all assays above

CCN(CC)c1cc(Br)c(=O)n(CC)c1-c1ccc(F)cc1Br [Compound 281]
> 50%: all assays above

CCCN(C)c1cc(Cl)c(=O)n(CC)c1-c1ccc(F)cc1Cl [compound 413]
> 50%: all assays above

C#CCN(C)c1cc(Br)c(=O)n(CC)c1-c1c(F)cc(F)cc1F [Compound 102]
> 50%: all assays above

CCN(CC(F)F)c1cc(Br)c(=O)n(CC)c1-c1ccccc1F [compound 423]
> 50%: all assays above

C#CCN(C)c1cc(Cl)c(=O)n(CC)c1-c1ccccc1Cl [compound 343]
> 50%: all assays above

CCN(CC(F)F)c1cc(Br)c(=O)n(CC)c1-c1ccccc1Cl [compound 405]
> 50%: all assays above

CCN(CC(F)F)c1cc(Br)c(=O)n(CC)c1-c1ccccc1Br [compound 401]
> 50%: all assays above

CCN(C)c1cc(Br)c(=O)n(C)c1-c1c(F)cc(OC)cc1F [Compound 87]
> 50%: all assays above

C#CCN(C)c1cc(Br)c(=O)n(CC)c1-c1ccc(F)cc1C [compound 378]
> 50%: all assays above

CCN(CC(F)F)c1cc(Cl)c(=O)n(CC)c1-c1ccccc1F [compound 346]
> 50%: all assays above

CCN(CC)c1cc(Br)c(=O)n(CC)c1-c1c(F)cc(F)cc1F [Compound 69]
> 50%: all assays above

CCn1c(-c2ccccc2Cl)c(N(C)CC(F)F)cc(Cl)c1=O [compound 344]
> 50%: all assays above

C#CCN(CC)c1cc(Br)c(=O)n(CC)c1-c1ccc(F)cc1F [Compound 277]
> 50%: all assays above

CCn1c(-c2ccc(F)cc2)c(N(C)C(C)C)cc(Cl)c1=O [Compound 165]
> 50%: all assays above

CCn1c(-c2ccccc2Cl)c(N(C)C(C)C)cc(Br)c1=O [Compound 202]
> 50%: all assays above

CCn1c(-c2ccc(F)cc2Cl)c(N2CCCCC2)cc(Br)c1=O [Compound 273]
> 50%: all assays above

C#CCN(C)c1cc(Br)c(=O)n(CC)c1-c1ccccc1F [compound 412]
> 50%: all assays above

CCn1c(-c2ccc(F)cc2Br)c(N(C)C(C)C)cc(Br)c1=O [Compound 285]
> 50%: all assays above

CCN(CC)c1cc(Br)c(=O)n(CC)c1-c1ccc(OC)cc1Cl [compound 350]
> 50%: all assays above

CCN(CC(F)F)c1cc(Cl)c(=O)n(CC)c1-c1ccc(F)cc1C [compound 347]
> 50%: all assays above

CCn1c(-c2ccccc2F)c(N(C)CC(F)F)cc(Cl)c1=O [compound 345]
> 50%: all assays above

CCC(C)N(CC)c1cc(Br)c(=O)n(CC)c1-c1c(F)cc(OC)cc1F (stereo not drawn) [Compound 140]
> 50%: all assays above

C#CCN(C)c1cc(Cl)c(=O)n(CC)c1-c1ccc(F)cc1F [Compound 270]
> 50%: all assays above

CCn1c(-c2c(F)cc(F)cc2F)c(N(C)CC#N)cc(Br)c1=O [Compound 106]
> 50%: all assays above

CCCCN(C)c1cc(Cl)c(=O)n(CC)c1-c1ccc(F)cc1Cl [compound 414]
> 50%: all assays above

CCn1c(-c2c(F)cc(F)cc2F)c(N(C)c2cccc(Cl)c2)cc(Br)c1=O [Compound 177]
> 50%: all assays above

CCCN(CCC)c1cc(Cl)c(=O)n(CC)c1-c1ccc(F)cc1Cl [compound 417]
> 50%: all assays above

C#CCN(C)c1cc(Cl)c(=O)n(CC)c1-c1ccc(F)cc1C [compound 392]
> 50%: all assays above

CCN(CC)c1cc(Cl)c(=O)n(CC)c1-c1ccc(F)cc1Br [Compound 280]
> 50%: all assays above

CCn1c(-c2ccc(F)cc2Cl)c(N(C)CC(F)F)cc(Cl)c1=O [Compound 231]
> 50%: all assays above

CCn1c(-c2ccccc2Cl)c(N(C)C(C)C)cc(Cl)c1=O [Compound 201]
> 50%: all assays above

C#CCN(C)c1cc(Cl)c(=O)n(CC)c1-c1ccc(F)cc1Br [Compound 292]
> 50%: all assays above

CCn1c(-c2ccc(F)cc2F)c(N2CCCCC2)cc(Cl)c1=O [compound 337]
> 50%: all assays above

C#CCN(CC)c1cc(Br)c(=O)n(CC(F)F)c1-c1c(F)cc(F)cc1F [Compound 161]
> 50%: all assays above

CCn1c(-c2c(F)cccc2Cl)c(N(C)CC(F)F)cc(Br)c1=O [compound 354]
> 50%: all assays above

CCn1c(-c2c(F)cc(F)cc2F)c(Nc2cccc(Cl)c2)cc(Br)c1=O [Compound 176]
> 50%: all assays above

C#CCN(CC)c1cc(Cl)c(=O)n(CC)c1-c1ccccc1Cl [Compound 205]
> 50%: all assays above

CCN(C)c1cc(Cl)c(=O)n(CC)c1-c1c(F)cc(F)cc1F [Compound 13]
> 50%: all assays above

— patent US20200172486A1, “PYRIDONE COMPOUNDS AND AGRICULTURAL AND HORTICULTURAL FUNGICIDES CONTAINING THE SAME AS ACTIVE INGREDIENTS” (MITSUI CHEMICALS AGRO, INC., priority 2017, published 2020)
